Laboratory results from publication PMC6123713, “Adenylate kinase potentiates the capsular polysaccharide by modulating Cps2D in Streptococcus pneumoniae D39” (Experimental & Molecular Medicine, 2018).
These are yes or no findings as the source states them, for the method shown. Binding seen in cells or lysates may run through a third protein.

B1: Cps2D, endogenous (enzyme, UniProt Q9ZII6 1-226)
chain: MPTLEISQAKLDFVKKAEEYYNSLCTNLQLSGDGLKVFSITSVKLGEGKSTTSTNIAWAFARAGYKTLLIDGDIRNSVMLGVFKARDKITGLTEFLSGTTDLSQGLCDTNIENLFVIQAGSVSPNPTALLQRKNFSTMLETLRKYFDYIIVDTAPVGVVIDAAIITRKCDASILVTEAGEINRRDIQKAKEQLEHTGKPFLGVVLNKFDTSVDKYGSYGDYGKNKK
B2: GST-SpAdK (Streptococcus pneumoniae adenylate kinase, GST-tagged) (enzyme)
chain: MNLLIMGLPGAGKGTQAAKIVEQFHVAHISTGDMFRAAMANQTEMGVLAKSYIDKGELVPDEVTNGIVKERLSQDDIKETGFLLDGYPRTIEQAHALDKTLAELGIELEGIINIEVNPDSLLERLSGRIIHRVTGETFHKVFNPPVDYKEEDYYQREDDKPETVKRRLDVNIAQGEPIIAHYRAKGLVHDIEGNQDINDVFSDIEKVLTNLK
notes: adenylate kinase of Streptococcus pneumoniae (SpAdK); also called glutathione S-transferase (GST)-SpAdK; pGST-ADK; source: recombinant, purified; plasmid pGST-ADK (E. coli plasmid pGST-parallel 2); cloning and purification in the Supplementary Information

Molecular target: AdhE, endogenous (Streptococcus pneumoniae D39 (endogenous in D39 lysate))
Test: co-IP; S. pneumoniae D39 WT lysate (100 µg) with antibodies against SpAdK, Cps2D or AdhE (negative control), Protein A/G PLUS Agarose, 4 °C; western blotting; no exogenous Mg-ATP added

| Binder | binding |
| --- | --- |
| B1 | no binding |
| B2 | no binding |
